# Source: PubChem BioAssay AID1508600 (Functional Genomics Laboratory (NCATS/FGL), 2020)
# Out of some 53,000 sequences screened, about 3,700 (7%) were called active.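 Rule for the calls: active = gene knockdowns whose robust z-score for IL-1 alpha signal is at least 2 or at most -2, so actives lie on both sides; inactive = the rest.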 Some of the results follow.
# Experiment: Components of the Cytosolic LPS Sensing Pathway: Gene Identification via Genome-wide siRNA Screen;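 note: robust z of the log signal after scaling to non-targeting control siRNA wells of the plate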
# Conditions: RAW264.7 macrophages, IL-1a HTRF, actives lie on both sides, screened at 100 nM (by protocol), cells primed 5 h with Pam3CSK4 first
# How it was run: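 RAW264.7; siRNA 100 nM final, RNAiMAX, 48h 37 degrees C; Pam3CSK4 5 h; LipidA + TransIT-TKO 24 h; IL-1a HTRF; CellTiter-Glo viability; robust z vs negative-control median.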
row,Sequence,z-score
1,GGUCCUAAAUGCUCAGAAGTT against Rnf167,inactive: 0.41
2,GGCCUCUUCCUGCUUCUUATT against Tmem218,inactive: -0.125
3,UUAGCCGAAAGGGCUUAACTT against Olfr1032,inactive: 1.57
4,GAAUGUAUGGUGAUCAAAGTT against Pip,inactive: 0.205
5,GCUUGUGUUUUAGAGCCGCTT against Mat1a,inactive: 0.653
6,GGGUUAUACCCAGAAUUUCTT against Fcrla,inactive: 0.442
7,GGCCUUUCUUUUGUAAUUUTT against Zfp57,inactive: -0.155
8,CCCUACGAAGUACCAACUUTT against Il18bp,inactive: -1.72
9,GGAAAAUUAAUAGCACAAGTT against Acot13,inactive: 0.0633
10,CCAAGGUAAAUUACUAUGATT against Ninl,inactive: -0.572
11,GAAUCGGAGCAGUGUGUCATT against Tff2,inactive: -0.556
12,GGAGGUACCACAAAAGGCATT against Kif2c,inactive: 0.0217
13,GGAGCUAAACCAAUGGCAATT against Txndc15,inactive: 0.479
14,GGAUUCGGAAAUAUUGCCATT against Fgb,inactive: -0.672
15,GGUGAAACUGAGAAUCAUGTT against Mcpt4,inactive: -0.251
16,CGAGGUAAACAGUUUCGUUTT against BC051142,inactive: -0.0606
17,GCUCUGUCUUCAGGUCAUUTT against Olfr1040,inactive: -0.0484
18,GCAGCAGACAAUUAUGAAUTT against Lypd6,inactive: 0.0158
19,GGGCUGACUACCUUGUCAUTT against Mad2l2,inactive: -0.216
20,GCUGUCGAGUAGAUGUCUUTT against Thoc6,inactive: -0.435
21,GGUCAUCUCAGUACUACAATT against Dgat2,inactive: 0.251
22,CCAAAGAGCGCAUGGCUCATT against Epn2,inactive: -0.782
23,GGUUCUUAUCACUUGCUGUTT against Arf6,inactive: 0.838
24,GCUGAGGCAAUUUCAACUUTT against Ctla4,inactive: 0.169
25,GGUAGUGACGAAAAAUAACTT against Pigt,inactive: -0.677
26,GGAGGACUUUGGAUUUAAGTT against Prim1,inactive: 1.13
27,CCUCCAGUACCAACAUUAGTT against Olfr299,inactive: -0.569

row,Sequence,z-score
1,GGAUCAAGCAGAAAGGAGATT against Otc,inactive: -0.84
2,GGAUUCUCUAAUAAAGCGUTT against Pof1b,inactive: 0.684
3,GGCAAGAAACAGGAGAAGATT against Ptn,inactive: -0.14
4,GGUUUUAGAAGGGAAACAUTT against Ppp2r2c,inactive: -0.763
5,GGACAACCAAAAUGCAUUUTT against Zic3,inactive: 0.517
6,GGAAACAGCAUCAUCAUGUTT against Snrpg,active: -2.28
7,GGACUUACCUUUAACCAACTT against Slc30a4,inactive: 0.42
8,GGGAUGCUCUGAACAUUGATT against Anxa2,active: 3.22
9,GCCAACUGAAGAUCCGUGUTT against Pgm5,inactive: 1.54
10,GGUGGUUGUAAGUAAGCUGTT against Lgals3,inactive: -0.327
11,GCUAGGUAUCUAAGGAUAUTT against Fig4,inactive: -0.579
12,GGAGUUCUGCAUCUACAACTT against Syngr1,inactive: 0.0453
13,GGGAAGACAACAAUUCUAUTT against Arf1,inactive: 1.76
14,GGAUGGACUUCUGUAUCACTT against Cdh17,inactive: 0.97
15,GCUAGAGUCCAUAAACAAUTT against Olfr1148,inactive: -0.0654
16,GGACAGCUCUCAUCUGAUGTT against Larp4b,inactive: 0.409
17,GGCCAAGGAGAGCAUUCGATT against Vps4a,inactive: -0.769
18,GGCUUUUGUCAAACAGCAUTT against Ins1,active: -2.9
19,CCUGUACUCUACCUCACACTT against Nol4l,inactive: -1.34
20,GCAAUAAGGUGAAGUCAGATT against Mbd2,inactive: -0.834
21,GUACCUCUACUAUUCCUUUTT against Krtap5-2,inactive: -0.13
22,GGAAGUAACAUGCUUCUAGTT against Ccdc42,inactive: 0.75
23,GGAACUGGGUUCAUCCACATT against Snrpb2,active: -2.02
24,GGCAGACAAGGAUUCCUUGTT against Mrpl38,inactive: 0.626
25,GGCUUUUCGUUGUAAAUCATT against 9930111J21Rik2,inactive: 0.735
26,GGCAUUUGAGAGACACAGGTT against A930104D05Rik,inactive: -1.65

# A few values from the results shown:
# z-score, GGUUUUAGAAGGGAAACAUTT against Ppp2r2c reads inactive: -0.763
# z-score, GGAUUCUCUAAUAAAGCGUTT against Pof1b reads inactive: 0.684
